Laboratory results from paper PMC12500468.
Results are given in words; binding and its absence hold for the method and conditions named. Binding seen in cells or lysates may run through a third protein. Here binding means that the protein was enriched with, or labelled near, the bait; the list need not be complete. Where a sequence is shown, tags or fusion partners need not be part of it.

Tests used:
[1] = target: T1, LZTR1-mini-TurboID-HA (LZTR1 fused to biotin ligase tagged with HA) (UniProt Q8N653); test: proximity labelling; LZTR1-TurboID or GFP-TurboID in melanoma cells with or without doxycycline; biotin for 24 h or for 2 and 18 h; streptavidin bead-bound proteins and whole cell lysates probed by Western blot
T1 sequence: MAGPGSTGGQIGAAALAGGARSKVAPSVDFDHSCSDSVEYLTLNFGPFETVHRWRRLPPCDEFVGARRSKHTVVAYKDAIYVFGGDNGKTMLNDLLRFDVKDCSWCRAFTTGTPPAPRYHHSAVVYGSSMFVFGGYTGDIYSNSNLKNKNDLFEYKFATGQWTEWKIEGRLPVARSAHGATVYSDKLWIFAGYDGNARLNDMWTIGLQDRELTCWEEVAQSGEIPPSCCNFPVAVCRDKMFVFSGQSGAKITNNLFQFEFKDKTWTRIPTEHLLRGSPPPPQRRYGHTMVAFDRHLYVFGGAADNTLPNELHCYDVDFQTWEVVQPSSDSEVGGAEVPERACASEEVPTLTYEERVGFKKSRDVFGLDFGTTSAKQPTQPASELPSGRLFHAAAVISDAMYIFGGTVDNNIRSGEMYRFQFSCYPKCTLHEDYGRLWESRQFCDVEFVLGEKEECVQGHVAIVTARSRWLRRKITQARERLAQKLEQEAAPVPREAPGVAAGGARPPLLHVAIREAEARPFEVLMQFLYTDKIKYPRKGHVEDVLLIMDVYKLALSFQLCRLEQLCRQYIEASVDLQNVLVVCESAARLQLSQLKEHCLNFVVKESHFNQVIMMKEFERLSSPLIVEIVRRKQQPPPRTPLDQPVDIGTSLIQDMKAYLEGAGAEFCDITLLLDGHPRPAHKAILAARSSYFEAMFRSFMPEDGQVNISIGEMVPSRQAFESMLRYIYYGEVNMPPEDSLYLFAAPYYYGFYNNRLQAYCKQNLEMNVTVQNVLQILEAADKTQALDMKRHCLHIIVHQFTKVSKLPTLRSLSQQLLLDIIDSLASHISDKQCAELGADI

[2] = target: T1, LZTR1-mini-TurboID-HA (LZTR1 fused to biotin ligase tagged with HA); test: proximity labelling; LZTR1-miniTurbo-HA or GFP-TurboID (control) induced with doxycycline in YUHIMO, YUHEF and YUSIK melanoma cells; biotin 50 uM; streptavidin magnetic beads; in-gel trypsin digestion, LC-MS/MS with label-free quantitation; enriched over control at p < 0.05; three biological replicates

- binding [1]: binds
- binding [2]: binds
B1: GOLGA3 (golgin A3) (protein, UniProt Q08378 1-1498)
chain: MDGASAEQDGLQEDRSHSGPSSLPEAPLKPPGPLVPPDQQDKVQCAEVNRASTEGESPDGPGQGGLCQNGPTPPFPDPPSSLDPTTSPVGPDASPGVAGFHDNLRKSQGTSAEGSVRKEALQSLRLSLPMQETQLCSTDSPLPLEKEEQVRLQARKWLEEQLKQYRVKRQQERSSQPATKTRLFSTLDPELMLNPENLPRASTLAMTKEYSFLRTSVPRGPKVGSLGLPAHPREKKTSKSSKIRSLADYRTEDSNAGNSGGNVPAPDSTKGSLKQNRSSAASVVSEISLSPDTDDRLENTSLAGDSVSEVDGNDSDSSSYSSASTRGTYGILSKTVGTQDTPYMVNGQEIPADTLGQFPSIKDVLQAAAAEHQDQGQEVNGEVRSRRDSICSSVSLESSAAETQEEMLQVLKEKMRLEGQLEALSLEASQALKEKAELQAQLAALSTKLQAQVECSHSSQQRQDSLSSEVDTLKQSCWDLERAMTDLQNMLEAKNASLASSNNDLQVAEEQYQRLMAKVEDMQRSMLSKDNTVHDLRQQMTALQSQLQQVQLERTTLTSKLKASQAEISSLQSVRQWYQQQLALAQEARVRLQGEMAHIQVGQMTQAGLLEHLKLENVSLSQQLTETQHRSMKEKGRIAAQLQGIEADMLDQEAAFMQIQEAKTMVEEDLQRRLEEFEGERERLQRMADSAASLEQQLEQVKLTLLQRDQQLEALQQEHLDLMKQLTLTQEALQSREQSLDALQTHYDELQARLGELQGEAASREDTICLLQNEKIILEAALQAAKSGKEELDRGARRLEEGTEETSETLEKLREELAIKSGQVEHLQQETAALKKQMQKIKEQFLQQKVMVEAYRRDATSKDQLISELKATRKRLDSELKELRQELMQVHGEKRTAEAELSRLHREVAQVRQHMADLEGHLQSAQKERDEMETHLQSLQFDKEQMVAVTEANEALKKQIEELQQEARKAITEQKQKMRRLGSDLTSAQKEMKTKHKAYENAVGILSRRLQEALAAKEAADAELGQLRAQGGSSDSSLALHERIQALEAELQAVSHSKTLLEKELQEVIALTSQELEESREKVLELEDELQESRGFRKKIKRLEESNKKLALELEHEKGKLTGLGQSNAALREHNSILETALAKREADLVQLNLQVQAVLQRKEEEDRQMKHLVQALQASLEKEKEKVNSLKEQVAAAKVEAGHNRRHFKAASLELSEVKKELQAKEHLVQKLQAEADDLQIREGKHSQEIAQFQAELAEARAQLQLLQKQLDEQLSKQPVGNQEMENLKWEVDQKEREIQSLKQQLDLTEQQGRKELEGLQQLLQNVKSELEMAQEDLSMTQKDKFMLQAKVSELKNNMKTLLQQNQQLKLDLRRGAAKTRKEPKGEASSSNPATPIKIPDCPVPASLLEELLRPPPAVSKEPLKNLNSCLQQLKQEMDSLQRQMEEHALTVHESLSSWTPLEPATASPVPPGGHAGPRGDPQRHSQSRASKEGPGE
